Test results taken from paper PMC10866652.

Amino acid sequences for entries named in this document (tags omitted). A change or cut given only in a name is not applied to a line headed by its entry.
UniProt Q64332: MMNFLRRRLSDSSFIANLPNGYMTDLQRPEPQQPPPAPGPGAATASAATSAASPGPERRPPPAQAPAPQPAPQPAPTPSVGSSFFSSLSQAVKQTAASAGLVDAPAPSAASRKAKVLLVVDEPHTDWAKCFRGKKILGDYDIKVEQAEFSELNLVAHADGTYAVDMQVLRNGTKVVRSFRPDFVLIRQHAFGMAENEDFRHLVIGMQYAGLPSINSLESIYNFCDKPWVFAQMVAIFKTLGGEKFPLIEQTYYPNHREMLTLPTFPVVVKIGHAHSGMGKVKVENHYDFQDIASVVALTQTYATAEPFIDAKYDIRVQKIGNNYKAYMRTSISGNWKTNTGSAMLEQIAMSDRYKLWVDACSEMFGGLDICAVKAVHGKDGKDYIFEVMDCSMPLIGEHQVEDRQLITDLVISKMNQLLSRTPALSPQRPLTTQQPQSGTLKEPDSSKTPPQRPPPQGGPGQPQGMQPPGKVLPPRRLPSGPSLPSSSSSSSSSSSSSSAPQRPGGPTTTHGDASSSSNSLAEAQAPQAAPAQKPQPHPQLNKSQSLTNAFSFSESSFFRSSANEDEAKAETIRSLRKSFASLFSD

Target: T1, Syngr3(fl)-HA (mouse) (UniProt Q8R191)
T1 sequence: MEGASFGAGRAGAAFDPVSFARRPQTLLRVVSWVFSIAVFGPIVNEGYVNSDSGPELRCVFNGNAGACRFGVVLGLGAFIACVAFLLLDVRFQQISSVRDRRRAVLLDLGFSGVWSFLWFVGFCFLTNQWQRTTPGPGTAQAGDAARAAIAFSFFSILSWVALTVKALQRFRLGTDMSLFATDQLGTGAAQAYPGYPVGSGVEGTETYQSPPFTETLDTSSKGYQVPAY
Assay: co-IP; HEK293T cells transiently co-transfected; lysates precipitated with anti-HA, blotted with anti-HA and anti-EGFP (Figure 6C)

binding | Substance
binds | EGFP-Syn2a-ΔE (from UniProt Q64332)
no binding | EGFP-Syn2a-ΔH (from UniProt Q64332)

Results are given in words; binding and its absence hold for the method and conditions named. In cells and extracts the contact can be indirect. Binding can be weak; no strength is given. Where a sequence is shown, tags or fusion partners need not be part of it.
